Measured values as given in PMC12990696.

Target: T1, asparaginyl endopeptidase (AEP) (human (endogenous in human HPMCs or SKOV3 cells; cells of the co-IP not named)) (UniProt Q99538)
T1 sequence: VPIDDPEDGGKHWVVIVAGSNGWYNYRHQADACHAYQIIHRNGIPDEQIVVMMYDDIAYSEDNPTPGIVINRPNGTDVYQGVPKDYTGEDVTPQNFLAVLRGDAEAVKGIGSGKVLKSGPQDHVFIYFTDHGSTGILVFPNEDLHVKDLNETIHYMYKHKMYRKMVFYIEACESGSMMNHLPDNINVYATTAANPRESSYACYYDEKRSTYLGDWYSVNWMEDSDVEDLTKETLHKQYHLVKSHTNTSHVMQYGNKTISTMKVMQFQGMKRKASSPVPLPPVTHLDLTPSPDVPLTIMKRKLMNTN
Experiment: co-IP; Pierce Co-Immunoprecipitation Kit; cell lysate incubated overnight with anti-legumain antibody (R&D, AF2199); precipitate analysed by Western blotting

- binding: binds
Substance: integrin α5β1 (ITGA5B1) (complex)

Results are given in words; binding and its absence hold for the method and conditions named. In cells and extracts the contact can be indirect. Binding calls can cover weak binding; strength is not graded here.
